Source: paper PMC2944810
These are yes or no findings as the source states them, for the method shown. Binding seen in cells or lysates may run through a third protein. Some results given as binding are weak or reduced against the parent protein; the word gives no strength.

Amino acid sequences for entries named in this document (tags omitted). Residues count along the entry.
UniProt Q8GXV7, residues 22-303: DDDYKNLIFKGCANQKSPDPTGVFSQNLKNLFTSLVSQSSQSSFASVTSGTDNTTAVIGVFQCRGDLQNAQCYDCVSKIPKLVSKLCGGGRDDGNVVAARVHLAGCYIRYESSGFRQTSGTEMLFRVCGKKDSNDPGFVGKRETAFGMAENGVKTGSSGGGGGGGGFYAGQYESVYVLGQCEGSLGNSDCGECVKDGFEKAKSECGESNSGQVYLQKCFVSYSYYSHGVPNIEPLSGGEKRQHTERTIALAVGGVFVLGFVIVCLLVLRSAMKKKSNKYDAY
UniProt P03545: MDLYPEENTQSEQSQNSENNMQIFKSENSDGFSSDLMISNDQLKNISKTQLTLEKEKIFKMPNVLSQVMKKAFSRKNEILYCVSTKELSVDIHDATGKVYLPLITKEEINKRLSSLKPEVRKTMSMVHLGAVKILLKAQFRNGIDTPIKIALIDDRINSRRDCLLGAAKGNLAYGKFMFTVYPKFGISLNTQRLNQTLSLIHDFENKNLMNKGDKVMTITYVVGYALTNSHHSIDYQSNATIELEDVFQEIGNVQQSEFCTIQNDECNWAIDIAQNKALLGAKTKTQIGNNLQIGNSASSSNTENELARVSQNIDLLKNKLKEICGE

Target: PDLP1:RFP (plasmodesmata-located protein 1 fused to RFP) (Arabidopsis thaliana) (UniProt Q8GXV7)
Assay: FRET or BRET; FRET-FLIM in living N. benthamiana leaf epidermal cells after transient co-expression by agro-infiltration; GFP fusion of the movement protein as donor, RFP fusion as acceptor; fluorescence lifetime of the donor measured at tubules or plasmodesmata

P1:GFP (Cauliflower mosaic virus movement protein P1 fused to GFP) (from UniProt P03545 1-327)
binding: binds
